# Source: the supplement of paper PMC10338343
# ± gives the standard deviation. Only a part is listed here, and it is no random draw. Many entries were measured with a wide error.
# Experiments:
# [1] = test system: MILI (PIWIL2) piRISC loaded with piRNA #1 (26 nt); test: pre-steady-state target cleavage rate (min^-1); higher = faster piRNA-guided slicing of the target; settings: guide: piRNA #1 5'p-UGAGGUAGUAGGUUGUAUAGUAUCCA; auxiliary factor: 500 nM mouse GTSF1
# How it was run: (§1)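 Sequencing of uncleaved targets, normalised to depth and to weakly complementary targets, was the readout of this Cleave-'n-Seq assay. A transcribed, DNA-blocked target RNA library (0.1 nM) was mixed with 1 nM active affinity-purified piRISC carrying one synthetic guide, with or without 500 nM GTSF1 partner protein, in HEPES–potassium acetate buffer at 33 °C for 0–8 or 0–960 min. Three trials were pooled, k3 was capped at 0.0001 min^-1, and a burst-and-steady-state fit gave the pre-steady-state cleavage rate.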
# [2] = test system: EfPiwi piRISC loaded with piRNA #1 (26 nt); test: pre-steady-state target cleavage rate (min^-1); guide: piRNA #1 5'p-UGAGGUAGUAGGUUGUAUAGUAUCCA; MIWI and MILI are mouse PIWI proteins and EfPiwi is from a freshwater sponge; tags in brackets are library labels; higher = faster piRNA-guided slicing of the target; settings: auxiliary factor: 500 nM Ephydatia muelleri Gtsf1
# How it was run: as §1
Sequence,pre-steady-state target cleavage rate [1],pre-steady-state target cleavage rate [2]
GGAGACCAUACUAUACAACCUACUAGGACA,0.00119 ± 0.0072,0.00202 ± 0.0053
GGAGACCUAACUAUACAUCCUACUACCACA,0.251 ± 0.046,0.00275 ± 0.0047
GGAGACCUAACUAUACAACACUACUACCUCA,0.000183 ± 0.028,0.00185 ± 0.0043
GGAGAGGAUACUAUACAACCUAGUACGUCA,0.00151 ± 0.0048,0.0044 ± 0.0019
GGAGACCUUACUUUAGAACCUACUACCUCA,0.13 ± 0.01,0.000986 ± 0.0046
GGAGAGCAUACUAUACAUCCUACUACCUCA,0.335 ± 0.02,0.00491 ± 0.0024
GGAGACCUAUCUAUACAAGCCUACUACCUCA,0.00108 ± 0.0076,0.00205 ± 0.0039
GGAGACCUAUCUAUACAACCUAGCUACCUCA,0.0218 ± 0.0062,0.00165 ± 0.0041
GGAGACGAUACUAUACAACCUUCUACCUCA,0.0098 ± 0.0026,0.00729 ± 0.0029
GGAGACGAUACUAAACAACCUACUACCACA,0.214 ± 0.019,0.0014 ± 0.0031
GGAGACCAUACGUAUACAACCUACUACCUCA,0.212 ± 0.035,0.159 ± 0.064
GGAGACCUAUCUAUACAACCUACUAGGAGA [g6:g20:cont:t1A],0.00261 ± 0.004,0.00306 ± 0.0037
GGAGACCUUACUAUACAACCAACUAGCUCA,0.0021 ± 0.0029,0.0026 ± 0.0051
GGAGUGGAUACUAUAGAUCCUACUACCUCA,0.251 ± 0.015,0.0045 ± 0.0029
GGAGACCUAUGAUAUCAACCUACUGCCUCA,0.00191 ± 0.0045,0.000644 ± 0.0094
GGAGACCUAUCUAUACAACCUUCUACCUGA,0.00188 ± 0.0039,0.00288 ± 0.005
GGAGACCUUACUAUACAACGUUCUACCUCA,0.00546 ± 0.0015,0.000503 ± 0.005
GGAGACCUAUGAUUAGAACCUACUAGCUCA,0.000116 ± 0.032,0.000171 ± 0.012
GGAGUGGAUAGAAUACAACCUACUACCUCA,0.156 ± 0.014,0.0062 ± 0.0044
GGAGACCAUACUAUACAACCGACUACCUCA,0.00219 ± 0.0041,0.00248 ± 0.0025

Sequence,pre-steady-state target cleavage rate [1],pre-steady-state target cleavage rate [2]
GGAGACCUAUCUUUAGAACCUACUACCUCA,0.0437 ± 0.0095,0.000784 ± 0.0082
GGAGACCUAACCUAUACAACCUACUACCUCA,0.107 ± 0.056,0.0868 ± 0.028
GGAGACCAUACUAUACAAGCUACUUCCUCA,0.193 ± 0.016,0.00551 ± 0.0027
GGAGACGAAACUAUACAACCUACUACCACA,0.219 ± 0.031,0.00352 ± 0.0032
GGAGACCUAACUAUAGAACCUACUUCCUCA,0.00368 ± 0.005,0.000559 ± 0.0074
GGAGACCUAUGAAUAGAUCCUACUACCUCA,0.00208 ± 0.0027,0.00025 ± 0.011
GGAGACCUAACUAUACAACCAACUACCACA,0.00316 ± 0.0049,0.00152 ± 0.0096
GGAGUGGAUACUAUACAAGCAACUACCUCA,0.00874 ± 0.0017,0.00256 ± 0.0013
GGAGACCUAUGAUUAGAACCUUCUACCUCA,0.000319 ± 0.012,0.000183 ± 0.014
GGAGUGGAUACUAUACAACCUAACUACCUCA,0.0255 ± 0.0041,0.00456 ± 0.0023
GGAGACGAUACUAUACUACGUACUACCUCA,0.0345 ± 0.004,0.00413 ± 0.0027
GGAGACGAUACUAUACAACCUACUACUCUCA,0.244 ± 0.019,0.00563 ± 0.0022
GGAGACCAUACUAUACAACCUACUUCCUCA,0.114 ± 0.018,0.00455 ± 0.002
GGAGACCAUAGUAUACUACCUACUACCUCA,0.131 ± 0.013,0.00298 ± 0.0038
GGAGAGGAAACUAUUCAACCUACUACCUCA,0.172 ± 0.021,0.013 ± 0.0061
GGAGACCUAUGUAUACAACCUACUACCUCU [g2:g19:cont:t1U],0.0508 ± 0.0069,0.404 ± 0.18
GGAGACGAUACUAUACAACCUACUUGGUCA,0.00122 ± 0.0069,0.00312 ± 0.0021
GGAGACCAUACUAUAGAACCUUCUACCUCA,0.00154 ± 0.0043,0.00163 ± 0.0039
GGAGUGGAUACUAUACAACCUACUACGAGA,0.0112 ± 0.004,0.00447 ± 0.0022
GGAGACCUAUGAUAUGUAGCUACUAGCUCA,0.000498 ± 0.011,0.000542 ± 0.0094

Sequence,pre-steady-state target cleavage rate [1],pre-steady-state target cleavage rate [2]
GGAGACGAUACUAUACAUCCUACUACCUGA,0.237 ± 0.031,0.00464 ± 0.0014
GGAGACCUUUCUAUACAAGCUACUACCUCA,0.159 ± 0.012,0.00336 ± 0.0038
GGAGACCUUACUAUACAACCUAGUACGUCA,0.00165 ± 0.0047,0.00357 ± 0.0023
GGAGACCUAUGAUAAGAACCUAGUACCUCA,0.000141 ± 0.019,0.000182 ± 0.017
GGAGACCUAUGAUAACAACGAUCUACCUCA,0.000541 ± 0.012,0.000828 ± 0.0072
GGAGACCUUACUAUAUCAACCUACUACCUCA,0.0609 ± 0.0086,0.00321 ± 0.0042
GGAGACCUAUGAUAAGAACCUACUACCUGA,0.000108 ± 0.027,0.000109 ± 0.024
GGAGACCUAUGAUAUGUACCUACUAGGAGA [g6:g13:cont:t1A],0.000216 ± 0.019,0.000342 ± 0.0099
GGAGACCUAACUAUACAACCUUGAUGGAGA [g10:g21:cont:t1A],0.000106 ± 0.05,0.000534 ± 0.0079
GGAGUGGAUACUAUACAACCUUCUAGCUCA,0.00102 ± 0.0043,0.00376 ± 0.0018
GGAGACCUAACAAUACAACCUACUACGUCA,0.023 ± 0.0089,0.00201 ± 0.0066
GGAGACCUUACUAUAGAACCUAGUACCUCA,0.00154 ± 0.0026,0.00228 ± 0.0041
GGAGACGAUACUAUACAUCCUACUACCUCA,0.289 ± 0.024,0.00772 ± 0.0032
GGAGUGGAAACUAUACAUCCUACUACCUCA,0.275 ± 0.024,0.0101 ± 0.0045
GGAGACCUAUGAUAUCAACCUACUAUCUCA,0.00057 ± 0.0076,0.000223 ± 0.013
GGAGACCUAUCUAUACAAGCUAGUACCUCA,0.107 ± 0.017,0.00157 ± 0.0032
GGAGACCUUACUAUUCAACCUAGUACCUCA,0.0486 ± 0.011,0.00306 ± 0.0039
GGAGACGAUACUAUACAACCUACUAGCACA,0.00848 ± 0.0055,0.00326 ± 0.0016
GGAGAGGAUACUAUACUUGCUACUACCUCA,0.0407 ± 0.0049,0.00164 ± 0.0048
GGAGACCUAACUAUACAACCUAGUACCACA,0.00434 ± 0.0056,0.00588 ± 0.0049

# Reformatted with bars between the fields: part of the list above
Sequence | pre-steady-state target cleavage rate [1] | pre-steady-state target cleavage rate [2]
GGAGACCUAUGAUAUGUAGCUACUAGCUCA | 0.000498 ± 0.011 | 0.000542 ± 0.0094
GGAGACGAUACUAUACAUCCUACUACCUGA | 0.237 ± 0.031 | 0.00464 ± 0.0014
GGAGACCUUUCUAUACAAGCUACUACCUCA | 0.159 ± 0.012 | 0.00336 ± 0.0038
GGAGACCUUACUAUACAACCUAGUACGUCA | 0.00165 ± 0.0047 | 0.00357 ± 0.0023
GGAGACCUAUGAUAAGAACCUAGUACCUCA | 0.000141 ± 0.019 | 0.000182 ± 0.017
GGAGACCUAUGAUAACAACGAUCUACCUCA | 0.000541 ± 0.012 | 0.000828 ± 0.0072
GGAGACCUUACUAUAUCAACCUACUACCUCA | 0.0609 ± 0.0086 | 0.00321 ± 0.0042
GGAGACCUAUGAUAAGAACCUACUACCUGA | 0.000108 ± 0.027 | 0.000109 ± 0.024
GGAGACCUAUGAUAUGUACCUACUAGGAGA [g6:g13:cont:t1A] | 0.000216 ± 0.019 | 0.000342 ± 0.0099
GGAGACCUAACUAUACAACCUUGAUGGAGA [g10:g21:cont:t1A] | 0.000106 ± 0.05 | 0.000534 ± 0.0079
GGAGUGGAUACUAUACAACCUUCUAGCUCA | 0.00102 ± 0.0043 | 0.00376 ± 0.0018
GGAGACCUAACAAUACAACCUACUACGUCA | 0.023 ± 0.0089 | 0.00201 ± 0.0066
GGAGACCUUACUAUAGAACCUAGUACCUCA | 0.00154 ± 0.0026 | 0.00228 ± 0.0041
GGAGUGGAAACUAUACAUCCUACUACCUCA | 0.275 ± 0.024 | 0.0101 ± 0.0045
GGAGACCUUACUAUUCAACCUAGUACCUCA | 0.0486 ± 0.011 | 0.00306 ± 0.0039
GGAGACGAUACUAUACAACCUACUAGCACA | 0.00848 ± 0.0055 | 0.00326 ± 0.0016
GGAGAGGAUACUAUACUUGCUACUACCUCA | 0.0407 ± 0.0049 | 0.00164 ± 0.0048
GGAGACCUAACUAUACAACCUAGUACCACA | 0.00434 ± 0.0056 | 0.00588 ± 0.0049
